Results deposited as PubChem BioAssay AID1224829 (NIAID, 2016).
Shown is an unselected part of about 3,800 reagents tested. 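Calls cover raised and lowered translocation; gene median uses one vendor's three siRNAs; qiagen siRNAs acted more weakly than ambion siRNAs.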 The numbers tell different reagents against one gene apart. Further read-outs or replicates are left out here.

Screen: 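Secondary check of hits that alter LPS-induced p65 translocation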 (follow-up of hits)
Cells: mouse RAW264.7 G9 macrophage reporter cells
Knock-down reagent: single siRNA against mouse genes, 100 nM
Duration: 2 days of siRNA knock-down, then 40 min of LPS before fixing
Treatment: LPS (Salmonella minnesota R595) at 10 ng/ml
Detection: 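High-content images after 40 min LPS exposure; GFP-p65 nucleus to surrounding ring signal ratio, normalised to plate median and non-targeting control wells, expressed as z-score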
Scale: p65 translocation z-score: higher = more nuclear NF-kappaB p65 after LPS
Active means: 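Active means the replicate-mean z-score lies beyond plus or minus 2, in either direction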
Meaning of the calls: active = changed p65 translocation (either direction); inactive = no clear change

| gene | reagent | siRNA vendor or control pool | p65 translocation z-score, replicate mean | activity call |
| --- | --- | --- | --- | --- |
| Fev (FEV transcription factor, ETS family member) | 1 | ambion single siRNA | 3.72 | active |
| Fev (FEV transcription factor, ETS family member) | 2 | ambion single siRNA | 0.112 | inactive |
| Fev (FEV transcription factor, ETS family member) | 3 | ambion single siRNA | -3.77 | active |
| Fev (FEV transcription factor, ETS family member) | 4 | qiagen single siRNA | 1.41 | inactive |
| Fev (FEV transcription factor, ETS family member) | 5 | qiagen single siRNA | -0.166 | inactive |
| Fev (FEV transcription factor, ETS family member) | 6 | qiagen single siRNA | -3.26 | active |
| Nhlrc2 (NHL repeat containing 2) | 1 | ambion single siRNA | 2.6 | active |
| Nhlrc2 (NHL repeat containing 2) | 2 | ambion single siRNA | -5.46 | active |
| Nhlrc2 (NHL repeat containing 2) | 3 | ambion single siRNA | -5.95 | active |
| Nhlrc2 (NHL repeat containing 2) | 4 | qiagen single siRNA | 1.19 | inactive |
| Nhlrc2 (NHL repeat containing 2) | 5 | qiagen single siRNA | -0.0827 | inactive |
| Nhlrc2 (NHL repeat containing 2) | 6 | qiagen single siRNA | 0.751 | inactive |
| Rdh16f2 (RDH16 family member 2) | 1 | ambion single siRNA | 1.88 | inactive |
| Rdh16f2 (RDH16 family member 2) | 2 | ambion single siRNA | -2.02 | active |
| Rdh16f2 (RDH16 family member 2) | 3 | ambion single siRNA | -1.9 | inactive |
| Rdh16f2 (RDH16 family member 2) | 4 | qiagen single siRNA | -2.44 | active |
| Rdh16f2 (RDH16 family member 2) | 5 | qiagen single siRNA | -2.16 | active |
| Rdh16f2 (RDH16 family member 2) | 6 | qiagen single siRNA | -0.0559 | inactive |
| Aplp2 (amyloid beta precursor-like protein 2) | 1 | ambion single siRNA | -0.0211 | inactive |
| Aplp2 (amyloid beta precursor-like protein 2) | 2 | ambion single siRNA | -3.12 | active |
| Aplp2 (amyloid beta precursor-like protein 2) | 3 | ambion single siRNA | 0.583 | inactive |
| Aplp2 (amyloid beta precursor-like protein 2) | 4 | qiagen single siRNA | 0.0765 | inactive |
| Aplp2 (amyloid beta precursor-like protein 2) | 5 | qiagen single siRNA | -1.34 | inactive |
| Aplp2 (amyloid beta precursor-like protein 2) | 6 | qiagen single siRNA | -4.11 | active |
| Gadd45g (growth arrest and DNA-damage-inducible 45 gamma) | 1 | ambion single siRNA | -0.779 | inactive |
| Gadd45g (growth arrest and DNA-damage-inducible 45 gamma) | 2 | ambion single siRNA | 0.614 | inactive |
| Gadd45g (growth arrest and DNA-damage-inducible 45 gamma) | 3 | ambion single siRNA | -2.82 | active |
| Gadd45g (growth arrest and DNA-damage-inducible 45 gamma) | 4 | qiagen single siRNA | 1.56 | inactive |
| Gadd45g (growth arrest and DNA-damage-inducible 45 gamma) | 5 | qiagen single siRNA | -2.01 | active |
| Gadd45g (growth arrest and DNA-damage-inducible 45 gamma) | 6 | qiagen single siRNA | 0.0485 | inactive |
| Rassf8 | 1 | ambion single siRNA | -4.42 | active |
| Rassf8 | 2 | ambion single siRNA | -0.63 | inactive |
| Rassf8 | 3 | ambion single siRNA | -4.95 | active |
| Rassf8 | 4 | qiagen single siRNA | -0.912 | inactive |
| Rassf8 | 5 | qiagen single siRNA | -0.565 | inactive |
| Rassf8 | 6 | qiagen single siRNA | 2.16 | active |
| Atf3 (activating transcription factor 3) | 1 | ambion single siRNA | -4.41 | active |
| Atf3 (activating transcription factor 3) | 2 | ambion single siRNA | -1.58 | inactive |
| Atf3 (activating transcription factor 3) | 3 | ambion single siRNA | -3.72 | active |
| Atf3 (activating transcription factor 3) | 4 | qiagen single siRNA | 1.54 | inactive |
| Atf3 (activating transcription factor 3) | 5 | qiagen single siRNA | 2.59 | active |
| Atf3 (activating transcription factor 3) | 6 | qiagen single siRNA | -0.782 | inactive |

The list goes on (7 carried over from the part before).
| gene | reagent | siRNA vendor or control pool | p65 translocation z-score, replicate mean | activity call |
| --- | --- | --- | --- | --- |
| Rassf8 | 6 | qiagen single siRNA | 2.16 | active |
| Atf3 (activating transcription factor 3) | 1 | ambion single siRNA | -4.41 | active |
| Atf3 (activating transcription factor 3) | 2 | ambion single siRNA | -1.58 | inactive |
| Atf3 (activating transcription factor 3) | 3 | ambion single siRNA | -3.72 | active |
| Atf3 (activating transcription factor 3) | 4 | qiagen single siRNA | 1.54 | inactive |
| Atf3 (activating transcription factor 3) | 5 | qiagen single siRNA | 2.59 | active |
| Atf3 (activating transcription factor 3) | 6 | qiagen single siRNA | -0.782 | inactive |
| Disp2 (dispatched RND transporter family member 2) | 1 | ambion single siRNA | -1.19 | inactive |
| Disp2 (dispatched RND transporter family member 2) | 2 | ambion single siRNA | -5.31 | active |
| Disp2 (dispatched RND transporter family member 2) | 3 | ambion single siRNA | -2.69 | active |
| Disp2 (dispatched RND transporter family member 2) | 4 | qiagen single siRNA | 1.54 | inactive |
| Disp2 (dispatched RND transporter family member 2) | 5 | qiagen single siRNA | 0.889 | inactive |
| Disp2 (dispatched RND transporter family member 2) | 6 | qiagen single siRNA | -1.73 | inactive |
| Gzmf (granzyme F) | 1 | ambion single siRNA | -0.922 | inactive |
| Gzmf (granzyme F) | 2 | ambion single siRNA | -7.39 | active |
| Gzmf (granzyme F) | 3 | ambion single siRNA | -1.45 | inactive |
| Gzmf (granzyme F) | 4 | qiagen single siRNA | -0.707 | inactive |
| Gzmf (granzyme F) | 5 | qiagen single siRNA | -1.22 | inactive |
| Gzmf (granzyme F) | 6 | qiagen single siRNA | -3.19 | active |
| Vmn1r6 (vomeronasal 1 receptor 6) | 1 | ambion single siRNA | 2.85 | active |
| Vmn1r6 (vomeronasal 1 receptor 6) | 2 | ambion single siRNA | -4.67 | active |
| Vmn1r6 (vomeronasal 1 receptor 6) | 3 | ambion single siRNA | -5.65 | active |
| Actl7a (actin-like 7a) | 1 | ambion single siRNA | -2.74 | active |
| Actl7a (actin-like 7a) | 2 | ambion single siRNA | -1.18 | inactive |
| Actl7a (actin-like 7a) | 3 | ambion single siRNA | -5.11 | active |
| Actl7a (actin-like 7a) | 4 | qiagen single siRNA | 1.2 | inactive |
| Actl7a (actin-like 7a) | 5 | qiagen single siRNA | -2.95 | active |
| Actl7a (actin-like 7a) | 6 | qiagen single siRNA | 1.75 | inactive |
| Lyrm2 (LYR motif containing 2) | 1 | ambion single siRNA | -0.0549 | inactive |
| Lyrm2 (LYR motif containing 2) | 2 | ambion single siRNA | -1.2 | inactive |
| Lyrm2 (LYR motif containing 2) | 3 | ambion single siRNA | -0.828 | inactive |
| Lyrm2 (LYR motif containing 2) | 4 | qiagen single siRNA | -0.165 | inactive |
| Lyrm2 (LYR motif containing 2) | 5 | qiagen single siRNA | 0.585 | inactive |
| Lyrm2 (LYR motif containing 2) | 6 | qiagen single siRNA | -4.81 | active |
